From paper PMC11223080
No constants are given. Whether binding was seen depends on the method and setting. Binding seen in cells or lysates may run through a third protein. Some binding calls cover weakened binding; strength is not graded here.

Protein sequences, listed by entry. Tags and fused reporters are not part of them.
UniProt O35973: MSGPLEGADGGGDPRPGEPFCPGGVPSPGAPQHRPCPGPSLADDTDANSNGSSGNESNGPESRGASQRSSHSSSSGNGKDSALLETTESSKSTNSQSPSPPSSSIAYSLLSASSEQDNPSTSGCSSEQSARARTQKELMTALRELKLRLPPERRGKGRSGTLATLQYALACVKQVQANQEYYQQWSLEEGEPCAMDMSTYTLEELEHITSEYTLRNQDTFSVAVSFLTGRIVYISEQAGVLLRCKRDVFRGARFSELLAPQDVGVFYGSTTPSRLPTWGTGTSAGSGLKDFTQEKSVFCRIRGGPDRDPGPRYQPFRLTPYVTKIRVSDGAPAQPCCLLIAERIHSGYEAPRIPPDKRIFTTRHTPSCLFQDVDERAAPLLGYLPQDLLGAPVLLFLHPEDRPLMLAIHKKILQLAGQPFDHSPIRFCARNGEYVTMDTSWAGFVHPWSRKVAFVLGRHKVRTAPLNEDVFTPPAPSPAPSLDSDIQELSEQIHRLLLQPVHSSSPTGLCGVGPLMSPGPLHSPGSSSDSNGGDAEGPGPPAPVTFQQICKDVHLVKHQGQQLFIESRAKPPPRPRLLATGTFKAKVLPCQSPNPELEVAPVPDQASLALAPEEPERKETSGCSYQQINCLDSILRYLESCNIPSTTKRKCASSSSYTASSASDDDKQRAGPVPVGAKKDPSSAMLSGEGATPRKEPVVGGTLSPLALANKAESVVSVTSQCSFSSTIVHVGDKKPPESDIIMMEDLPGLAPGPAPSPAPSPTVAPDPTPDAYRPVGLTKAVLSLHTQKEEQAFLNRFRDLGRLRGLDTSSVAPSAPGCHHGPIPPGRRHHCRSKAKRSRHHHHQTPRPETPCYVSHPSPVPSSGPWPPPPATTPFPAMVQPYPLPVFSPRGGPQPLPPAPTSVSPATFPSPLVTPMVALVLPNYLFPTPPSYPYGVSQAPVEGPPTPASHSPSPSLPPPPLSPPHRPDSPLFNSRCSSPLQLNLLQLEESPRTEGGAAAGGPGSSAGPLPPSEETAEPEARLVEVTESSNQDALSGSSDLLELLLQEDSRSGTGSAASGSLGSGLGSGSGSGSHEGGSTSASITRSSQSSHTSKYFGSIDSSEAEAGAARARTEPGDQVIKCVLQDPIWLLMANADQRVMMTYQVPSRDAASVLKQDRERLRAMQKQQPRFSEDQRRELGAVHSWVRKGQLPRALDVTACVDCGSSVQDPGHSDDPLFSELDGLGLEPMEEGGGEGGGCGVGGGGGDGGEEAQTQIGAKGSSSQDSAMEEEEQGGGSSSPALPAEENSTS
UniProt O54943: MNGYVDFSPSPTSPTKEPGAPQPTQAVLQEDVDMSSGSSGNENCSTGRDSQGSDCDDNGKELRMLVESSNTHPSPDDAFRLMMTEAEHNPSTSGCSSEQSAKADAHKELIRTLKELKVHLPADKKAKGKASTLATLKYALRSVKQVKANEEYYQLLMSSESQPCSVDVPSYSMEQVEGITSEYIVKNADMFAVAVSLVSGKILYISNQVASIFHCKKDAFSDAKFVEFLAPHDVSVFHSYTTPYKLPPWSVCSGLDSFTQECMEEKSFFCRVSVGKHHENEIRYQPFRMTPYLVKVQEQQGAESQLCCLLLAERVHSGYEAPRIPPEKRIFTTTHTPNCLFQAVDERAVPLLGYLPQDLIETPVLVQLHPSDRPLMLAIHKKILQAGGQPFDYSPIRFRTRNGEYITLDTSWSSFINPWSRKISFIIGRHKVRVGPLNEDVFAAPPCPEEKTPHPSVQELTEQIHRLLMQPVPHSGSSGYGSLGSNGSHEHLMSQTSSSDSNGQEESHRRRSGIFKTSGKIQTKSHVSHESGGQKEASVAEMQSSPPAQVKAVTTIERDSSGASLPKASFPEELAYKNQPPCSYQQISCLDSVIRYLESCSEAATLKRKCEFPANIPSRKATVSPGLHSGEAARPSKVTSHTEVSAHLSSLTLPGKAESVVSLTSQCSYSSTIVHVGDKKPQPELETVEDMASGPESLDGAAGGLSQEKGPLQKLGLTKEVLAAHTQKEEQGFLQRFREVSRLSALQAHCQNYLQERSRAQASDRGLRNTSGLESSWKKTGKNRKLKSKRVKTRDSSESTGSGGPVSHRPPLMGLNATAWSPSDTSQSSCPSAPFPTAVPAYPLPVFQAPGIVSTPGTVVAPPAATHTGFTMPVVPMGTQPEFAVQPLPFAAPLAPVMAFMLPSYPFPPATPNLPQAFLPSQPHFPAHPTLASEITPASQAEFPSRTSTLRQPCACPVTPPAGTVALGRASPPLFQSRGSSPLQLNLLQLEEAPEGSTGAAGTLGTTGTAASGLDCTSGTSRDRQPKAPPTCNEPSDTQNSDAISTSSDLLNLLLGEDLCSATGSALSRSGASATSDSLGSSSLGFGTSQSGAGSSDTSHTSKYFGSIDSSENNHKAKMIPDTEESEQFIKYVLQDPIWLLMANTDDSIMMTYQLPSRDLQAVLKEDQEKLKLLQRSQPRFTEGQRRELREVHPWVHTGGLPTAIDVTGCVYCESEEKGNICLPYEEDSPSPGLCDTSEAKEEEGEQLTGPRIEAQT
UniProt P49674: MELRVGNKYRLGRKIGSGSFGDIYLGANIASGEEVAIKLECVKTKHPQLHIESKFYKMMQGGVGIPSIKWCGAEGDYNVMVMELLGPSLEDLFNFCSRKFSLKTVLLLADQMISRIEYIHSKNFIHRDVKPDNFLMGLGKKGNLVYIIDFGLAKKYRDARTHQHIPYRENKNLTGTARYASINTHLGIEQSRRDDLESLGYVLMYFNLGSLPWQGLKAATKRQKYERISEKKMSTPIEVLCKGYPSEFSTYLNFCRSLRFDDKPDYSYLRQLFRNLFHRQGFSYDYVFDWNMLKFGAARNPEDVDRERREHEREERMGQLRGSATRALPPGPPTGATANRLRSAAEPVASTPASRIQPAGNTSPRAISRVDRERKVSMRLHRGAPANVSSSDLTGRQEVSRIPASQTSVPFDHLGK

Key:
[1] = target: PER1, wildtype (UniProt O35973); assay: co-IP; PER1 or PER2 immunoprecipitated from 75 ug of lysate of transfected HEK293 cells with antibody on Protein G Dynabeads, 30 min at room temperature, washed thrice with PBS-T (0.1% tween-20); immunoblot for CK1ε
[2] = target: mouse PER2 (mPER2), wildtype (mouse) (UniProt O54943); assay: as above

How did the binding [1] turn out when “casein kinase 1ε (CK1ε) (from UniProt P49674 1-416) (enzyme)” was run?
Its binding is “binds”.

And the binding [2]?
Its binding is “binds”.
